In the supplement of paper PMC11546906:
Structures can show the parent of a compound that is named as a salt. Some of the results follow. This data set is noisy: repeats of one test often differ as much as different tests do.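 FDA-approved drugs were each paired with colistin at one-eighth its MIC and screened against a multidrug-resistant, mcr-1-positive clinical E. coli isolate, with OD600 read after 24 h. Drug-free bacteria served as growth control, plain broth as blank. Combinations were active if OD600 dropped below 0.2.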

System: Escherichia coli 42 (mcr-1-positive clinical isolate)
Experiment: OD600 after 24 h growth with compound plus colistin (absorbance units (OD600)); higher = more bacterial growth (less inhibition)
Conditions: first compound 25 µM; colistin concentration 0.5 ug/mL; incubation time 24 h; 37 °C

OD600, inactive:
C[C@H](CCC(=O)O)[C@H]1CC[C@H]2[C@@H]3CC[C@@H]4C[C@H](O)CC[C@]4(C)[C@H]3C[C@H](O)[C@]12C [Deoxycholic acid] + CCC(C)CCCC(=O)N[C@@H](CCN)C(=O)N[C@H](C(=O)N[C@@H](CCN)C(=O)N[C@H]1CCNC(=O)[C@H]([C@@H](C)O)NC(=O)[C@H](CCN)NC(=O)[C@H](CCN)NC(=O)[C@H](CC(C)C)NC(=O)[C@@H](CC(C)C)NC(=O)[C@H](CCN)NC1=O)[C@@H](C)O [colistin] 1.19
Nc1ccc(O)c(C(=O)O)c1 [5-Aminosalicylic Acid] + CCC(C)CCCC(=O)N[C@@H](CCN)C(=O)N[C@H](C(=O)N[C@@H](CCN)C(=O)N[C@H]1CCNC(=O)[C@H]([C@@H](C)O)NC(=O)[C@H](CCN)NC(=O)[C@H](CCN)NC(=O)[C@H](CC(C)C)NC(=O)[C@@H](CC(C)C)NC(=O)[C@H](CCN)NC1=O)[C@@H](C)O [colistin] 1.13
CC[C@H]1[C@@H](O)[C@@H]2[C@H](CC[C@]3(C)[C@@H]([C@H](C)CCC(=O)O)CC[C@@H]23)[C@@]2(C)CC[C@@H](O)C[C@@H]12 [Obeticholic Acid] + CCC(C)CCCC(=O)N[C@@H](CCN)C(=O)N[C@H](C(=O)N[C@@H](CCN)C(=O)N[C@H]1CCNC(=O)[C@H]([C@@H](C)O)NC(=O)[C@H](CCN)NC(=O)[C@H](CCN)NC(=O)[C@H](CC(C)C)NC(=O)[C@@H](CC(C)C)NC(=O)[C@H](CCN)NC1=O)[C@@H](C)O [colistin] 1.09
Cc1ccc(NC(=O)C2(c3ccc4c(c3)OC(F)(F)O4)CC2)nc1-c1cccc(C(=O)O)c1 [Lumacaftor] + CCC(C)CCCC(=O)N[C@@H](CCN)C(=O)N[C@H](C(=O)N[C@@H](CCN)C(=O)N[C@H]1CCNC(=O)[C@H]([C@@H](C)O)NC(=O)[C@H](CCN)NC(=O)[C@H](CCN)NC(=O)[C@H](CC(C)C)NC(=O)[C@@H](CC(C)C)NC(=O)[C@H](CCN)NC1=O)[C@@H](C)O [colistin] 1
NC(=O)C(c1ccccc1)(c1ccccc1)[C@@H]1CCN(CCc2ccc3c(c2)CCO3)C1 [Darifenacin hydrobromide] + CCC(C)CCCC(=O)N[C@@H](CCN)C(=O)N[C@H](C(=O)N[C@@H](CCN)C(=O)N[C@H]1CCNC(=O)[C@H]([C@@H](C)O)NC(=O)[C@H](CCN)NC(=O)[C@H](CCN)NC(=O)[C@H](CC(C)C)NC(=O)[C@@H](CC(C)C)NC(=O)[C@H](CCN)NC1=O)[C@@H](C)O [colistin] 0.994
Cc1nnc(NS(=O)(=O)c2ccc(N)cc2)s1 [Sulfamethizole] + CCC(C)CCCC(=O)N[C@@H](CCN)C(=O)N[C@H](C(=O)N[C@@H](CCN)C(=O)N[C@H]1CCNC(=O)[C@H]([C@@H](C)O)NC(=O)[C@H](CCN)NC(=O)[C@H](CCN)NC(=O)[C@H](CC(C)C)NC(=O)[C@@H](CC(C)C)NC(=O)[C@H](CCN)NC1=O)[C@@H](C)O [colistin] 0.986
OCCOCCN1CCN(C2=Nc3ccccc3Sc3ccccc32)CC1 [Quetiapine] + CCC(C)CCCC(=O)N[C@@H](CCN)C(=O)N[C@H](C(=O)N[C@@H](CCN)C(=O)N[C@H]1CCNC(=O)[C@H]([C@@H](C)O)NC(=O)[C@H](CCN)NC(=O)[C@H](CCN)NC(=O)[C@H](CC(C)C)NC(=O)[C@@H](CC(C)C)NC(=O)[C@H](CCN)NC1=O)[C@@H](C)O [colistin] 1.08
CN[C@H](CC(C)C)C(=O)N[C@H]1C(=O)N[C@@H](CC(N)=O)C(=O)N[C@H]2C(=O)N[C@H]3C(=O)N[C@H](C(=O)N[C@H](C(=O)O)c4cc(O)cc(O)c4-c4cc3ccc4O)[C@H](O)c3ccc(c(Cl)c3)Oc3cc2cc(c3O[C@@H]2O[C@H](CO)[C@@H](O)[C@H](O)[C@H]2O[C@H]2C[C@](C)(N)[C@H](O)[C@H](C)O2)Oc2ccc(cc2Cl)[C@H]1O [Vancomycin hydrochloride] + CCC(C)CCCC(=O)N[C@@H](CCN)C(=O)N[C@H](C(=O)N[C@@H](CCN)C(=O)N[C@H]1CCNC(=O)[C@H]([C@@H](C)O)NC(=O)[C@H](CCN)NC(=O)[C@H](CCN)NC(=O)[C@H](CC(C)C)NC(=O)[C@@H](CC(C)C)NC(=O)[C@H](CCN)NC1=O)[C@@H](C)O [colistin] 0.806
O=C(O)[C@@H](S)[C@@H](S)C(=O)O [Succimer] + CCC(C)CCCC(=O)N[C@@H](CCN)C(=O)N[C@H](C(=O)N[C@@H](CCN)C(=O)N[C@H]1CCNC(=O)[C@H]([C@@H](C)O)NC(=O)[C@H](CCN)NC(=O)[C@H](CCN)NC(=O)[C@H](CC(C)C)NC(=O)[C@@H](CC(C)C)NC(=O)[C@H](CCN)NC1=O)[C@@H](C)O [colistin] 1.02
CC(=O)N[C@@H](CS)C(=O)O [Acetylcysteine] + CCC(C)CCCC(=O)N[C@@H](CCN)C(=O)N[C@H](C(=O)N[C@@H](CCN)C(=O)N[C@H]1CCNC(=O)[C@H]([C@@H](C)O)NC(=O)[C@H](CCN)NC(=O)[C@H](CCN)NC(=O)[C@H](CC(C)C)NC(=O)[C@@H](CC(C)C)NC(=O)[C@H](CCN)NC1=O)[C@@H](C)O [colistin] 0.799
CC(S)C(=O)NCC(=O)O (centres undefined) [Tiopronin] + CCC(C)CCCC(=O)N[C@@H](CCN)C(=O)N[C@H](C(=O)N[C@@H](CCN)C(=O)N[C@H]1CCNC(=O)[C@H]([C@@H](C)O)NC(=O)[C@H](CCN)NC(=O)[C@H](CCN)NC(=O)[C@H](CC(C)C)NC(=O)[C@@H](CC(C)C)NC(=O)[C@H](CCN)NC1=O)[C@@H](C)O [colistin] 1.02
N[C@@H](Cc1cc(I)c(Oc2ccc(O)c(I)c2)c(I)c1)C(=O)O [Liothyronine] + CCC(C)CCCC(=O)N[C@@H](CCN)C(=O)N[C@H](C(=O)N[C@@H](CCN)C(=O)N[C@H]1CCNC(=O)[C@H]([C@@H](C)O)NC(=O)[C@H](CCN)NC(=O)[C@H](CCN)NC(=O)[C@H](CC(C)C)NC(=O)[C@@H](CC(C)C)NC(=O)[C@H](CCN)NC1=O)[C@@H](C)O [colistin] 1.12
CCCCCCCCCCCCCCCCCCCCCCO [1-Docosanol] + CCC(C)CCCC(=O)N[C@@H](CCN)C(=O)N[C@H](C(=O)N[C@@H](CCN)C(=O)N[C@H]1CCNC(=O)[C@H]([C@@H](C)O)NC(=O)[C@H](CCN)NC(=O)[C@H](CCN)NC(=O)[C@H](CC(C)C)NC(=O)[C@@H](CC(C)C)NC(=O)[C@H](CCN)NC1=O)[C@@H](C)O [colistin] 1.01
COc1ccc2cc(CCC(C)=O)ccc2c1 [Nabumetone] + CCC(C)CCCC(=O)N[C@@H](CCN)C(=O)N[C@H](C(=O)N[C@@H](CCN)C(=O)N[C@H]1CCNC(=O)[C@H]([C@@H](C)O)NC(=O)[C@H](CCN)NC(=O)[C@H](CCN)NC(=O)[C@H](CC(C)C)NC(=O)[C@@H](CC(C)C)NC(=O)[C@H](CCN)NC1=O)[C@@H](C)O [colistin] 1.05
C[C@]12C=CC(=O)C=C1CC[C@@H]1[C@@H]2[C@@H](O)C[C@@]2(C)[C@H]1CC[C@]2(O)C(=O)CO [Prednisolone] + CCC(C)CCCC(=O)N[C@@H](CCN)C(=O)N[C@H](C(=O)N[C@@H](CCN)C(=O)N[C@H]1CCNC(=O)[C@H]([C@@H](C)O)NC(=O)[C@H](CCN)NC(=O)[C@H](CCN)NC(=O)[C@H](CC(C)C)NC(=O)[C@@H](CC(C)C)NC(=O)[C@H](CCN)NC1=O)[C@@H](C)O [colistin] 0.96
Clc1ccc(C(c2ccccc2Cl)C(Cl)Cl)cc1 (centres undefined) [Mitotane] + CCC(C)CCCC(=O)N[C@@H](CCN)C(=O)N[C@H](C(=O)N[C@@H](CCN)C(=O)N[C@H]1CCNC(=O)[C@H]([C@@H](C)O)NC(=O)[C@H](CCN)NC(=O)[C@H](CCN)NC(=O)[C@H](CC(C)C)NC(=O)[C@@H](CC(C)C)NC(=O)[C@H](CCN)NC1=O)[C@@H](C)O [colistin] 1.01
NC(=O)c1cccnc1 [Nicotinamide] + CCC(C)CCCC(=O)N[C@@H](CCN)C(=O)N[C@H](C(=O)N[C@@H](CCN)C(=O)N[C@H]1CCNC(=O)[C@H]([C@@H](C)O)NC(=O)[C@H](CCN)NC(=O)[C@H](CCN)NC(=O)[C@H](CC(C)C)NC(=O)[C@@H](CC(C)C)NC(=O)[C@H](CCN)NC1=O)[C@@H](C)O [colistin] 0.918
Cc1cccc(C)c1OCC(C)N (centres undefined) [Mexiletine hydrochloride] + CCC(C)CCCC(=O)N[C@@H](CCN)C(=O)N[C@H](C(=O)N[C@@H](CCN)C(=O)N[C@H]1CCNC(=O)[C@H]([C@@H](C)O)NC(=O)[C@H](CCN)NC(=O)[C@H](CCN)NC(=O)[C@H](CC(C)C)NC(=O)[C@@H](CC(C)C)NC(=O)[C@H](CCN)NC1=O)[C@@H](C)O [colistin] 1.08
CC(=O)Oc1ccccc1C(=O)O [Aspirin] + CCC(C)CCCC(=O)N[C@@H](CCN)C(=O)N[C@H](C(=O)N[C@@H](CCN)C(=O)N[C@H]1CCNC(=O)[C@H]([C@@H](C)O)NC(=O)[C@H](CCN)NC(=O)[C@H](CCN)NC(=O)[C@H](CC(C)C)NC(=O)[C@@H](CC(C)C)NC(=O)[C@H](CCN)NC1=O)[C@@H](C)O [colistin] 1.02

Nothing new here: an excerpt of the list.
OD600, inactive:
Cc1cccc(C)c1OCC(C)N (centres undefined) [Mexiletine hydrochloride] + CCC(C)CCCC(=O)N[C@@H](CCN)C(=O)N[C@H](C(=O)N[C@@H](CCN)C(=O)N[C@H]1CCNC(=O)[C@H]([C@@H](C)O)NC(=O)[C@H](CCN)NC(=O)[C@H](CCN)NC(=O)[C@H](CC(C)C)NC(=O)[C@@H](CC(C)C)NC(=O)[C@H](CCN)NC1=O)[C@@H](C)O [colistin] 1.08
CC(=O)Oc1ccccc1C(=O)O [Aspirin] + CCC(C)CCCC(=O)N[C@@H](CCN)C(=O)N[C@H](C(=O)N[C@@H](CCN)C(=O)N[C@H]1CCNC(=O)[C@H]([C@@H](C)O)NC(=O)[C@H](CCN)NC(=O)[C@H](CCN)NC(=O)[C@H](CC(C)C)NC(=O)[C@@H](CC(C)C)NC(=O)[C@H](CCN)NC1=O)[C@@H](C)O [colistin] 1.02
